{
  "source": "PubChem BioAssay AID1347076",
  "about": "(National Center for Advancing Translational Sciences (NCATS), 2019)",
  "note": "Among all 400,000 compounds or so, about 13,000 (3.2%) were called active. Inconclusive means that the source gave no clear call. Such entries were picked first, then a sample of the others. Calls follow the shape of the dose curve; as a rule, active = well fitted cell-killing curve with a large enough effect; inconclusive = small, poorly fitted or top-dose-only effect, or effect the other way; inactive = flat fitted curve, though single readings scatter. A potency beside an inconclusive call is a rough fit, not a confirmed value. % is scaled to controls: 0 for no effect and ±100 for the full control effect; potency is read from the fitted curve at half-maximal effect.",
  "data": [
    {"experiment": "qHTS assay for MDR1-selective chemotherapeutics: Primary screen using the drug-selected MDR subline cells KB-V1; also: nearly all actives have a fitted effect of over 60% in size", "conditions": "KB-V1 MDR cells viability, CellTiter-Glo, 72 h; activity change, negative = cytotoxicity: at 46.1 µM (top of the series)", "summary_of_the_method": "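Following 72 h at 37 degrees C with compound, KB-V1 cell viability was read by CellTiter-Glo luminescence, medium being phenol-red-free DMEM plus 10% FBS; concentration-response parameters came from normalized, curve-fitted qHTS data.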", "values": [
      {"smiles": "O=C(c1nn2c(C(F)(F)F)cc(-c3ccc(F)cc3)nc2c1Cl)N1CCOCC1", "Potency": "inconclusive: 23.1 µM [cytotoxic, single point]"},
      {"smiles": "CCCCCCCCN1C(=O)C(O)=C(C(C)=O)C1c1ccccn1", "note": "(stereo not drawn)", "Potency": "active: 16.4 µM"},
      {"smiles": "CC(C)NC(=O)COC(=O)c1cccc(NS(=O)(=O)/C=C/c2ccccc2)c1", "Potency": "inconclusive: 2.91 µM [rising, full curve]"},
      {"smiles": "Cc1ccc(NC(=O)c2ncn(CCCNCCCc3ccccc3)n2)cc1C", "activity change, negative = cytotoxicity": "inactive: 0.0002%"},
      {"smiles": "O=C(O)C(Sc1ccncn1)c1ccccc1", "note": "(stereo not drawn)", "Potency": "inconclusive: 29.1 µM [rising, single point]"},
      {"smiles": "CCOc1cc(/C=C2\\C(=O)N(CCc3ccc(OC)c(OC)c3)C(C)=C2C(=O)OC)ccc1O", "activity change, negative = cytotoxicity": "inactive: 14.8%"},
      {"smiles": "O=C(CN(C(=O)CCC(=O)Nc1nccs1)c1ccc2c(c1)OCO2)NCc1ccccc1", "activity change, negative = cytotoxicity": "inconclusive: -2.97%"},
      {"smiles": "CN(C(=O)c1cccs1)c1ccc(OCC(=O)N2CCC(C(N)=O)CC2)cc1", "activity change, negative = cytotoxicity": "inactive: 16.1%"},
      {"smiles": "CCc1nnc(NS(=O)(=O)c2ccc(NC(=S)NC(=O)c3ccc(OC)cc3)cc2)s1", "Potency": "inconclusive: 20.6 µM [cytotoxic, partial curve, poor fit]"},
      {"smiles": "Cc1ccccc1-c1cnc(C(O)c2ccc(Cl)c(F)c2)[nH]1", "note": "(stereo not drawn)", "activity change, negative = cytotoxicity": "inactive: -1.19%"},
      {"smiles": "O=C(c1ccc(F)cc1)C1CCN(C(=O)N2CCOCC2)CC1", "Potency": "inconclusive: 20.6 µM [cytotoxic, single point]"},
      {"smiles": "Cc1cccc(Nc2nnc(SCC(=O)Nc3ccccc3[N+](=O)[O-])s2)c1", "Potency": "active: 20.6 µM"},
      {"smiles": "COc1ccc(C(=O)C2CCCN(C(=O)/C=C/c3ccccn3)C2)c(C)c1", "note": "(stereo not drawn)", "Potency": "inconclusive: 29.1 µM [cytotoxic, single point]"},
      {"smiles": "CC(C)C[C@H]1CN(CCCC[C@@H]2CNC(=O)C(=O)N2CCc2ccccc2)C(=O)C(=O)N1CCc1ccccc1", "activity change, negative = cytotoxicity": "inactive: 0%"},
      {"smiles": "CS(=O)(=O)N1CCN(C(=O)c2csc3ccccc23)CC1", "activity change, negative = cytotoxicity": "inactive: 0.517%"},
      {"smiles": "Cc1nc2c3ccccc3nc(NNC(=O)CCC(=O)N3CCN(c4ccccc4F)CC3)n2n1", "Potency": "inconclusive: 0.0046 µM [rising, full curve, poor fit]"},
      {"smiles": "O=S(=O)(Nc1cc(Cl)cc(Cl)c1)N1CCOCC1", "activity change, negative = cytotoxicity": "inconclusive: 20.9%"},
      {"smiles": "COc1ccc(-n2c(SCC(=O)Nc3cc(C)on3)nc3ccccc3c2=O)cc1Cl", "Potency": "inconclusive: 16.4 µM [cytotoxic, partial curve, poor fit]"},
      {"smiles": "Cc1ccc(CNC(=O)CSc2c3c(nc4ccc(Cl)cc24)CCCC3)o1", "Potency": "inconclusive: 20.6 µM [cytotoxic, single point]"},
      {"smiles": "CCOc1ccccc1NC(=O)NNC(=O)c1ccc2ccccc2c1", "Potency": "inconclusive: 16.4 µM [cytotoxic, single point]"},
      {"smiles": "CCOc1ccc(-n2nnnc2SCC(=O)NNC(=O)c2ccco2)cc1", "activity change, negative = cytotoxicity": "inactive: 13.7%"},
      {"smiles": "CCOc1ccc(NC(=O)NNC(=O)COc2ccc3ccccc3c2)cc1", "Potency": "inconclusive: 18.4 µM [rising, single point]"},
      {"smiles": "CC(C)CC1Nc2ncnc(N3CCN(c4ccccn4)CC3)c2N(Cc2ccccc2)C1=O", "note": "(stereo not drawn)", "Potency": "inconclusive: 9.2 µM [cytotoxic, partial curve, poor fit]"},
      {"smiles": "CC1CCN(C(=O)CCc2nnc3ccc(NCCCN4CCCC4=O)nn23)CC1", "Potency": "inconclusive: 16.4 µM [rising, single point]"},
      {"smiles": "COc1ccc(CCNC(=O)c2cccc3c2C(=O)N(C2CCCCC2)C3)cc1OC", "Potency": "active: 18.4 µM"},
      {"smiles": "CCSC1=NS(=O)(=O)c2ccccc21", "Potency": "inconclusive: 29.1 µM [rising, single point]"},
      {"smiles": "Cc1ccc2cc(CN(CC3CCCO3)C(=S)Nc3ccccc3)c(=O)[nH]c2c1", "note": "(stereo not drawn)", "Potency": "inconclusive: 20.6 µM [cytotoxic, single point]"},
      {"smiles": "CN1CCn2cnc(C(=O)Nc3ccc(Cl)cc3)c2C1=O", "activity change, negative = cytotoxicity": "inactive: 13.5%"},
      {"smiles": "COc1ccc(C2=Nc3ccccc3C2(O)CCN2C(=O)c3ccccc3C2=O)cc1", "note": "(stereo not drawn)", "activity change, negative = cytotoxicity": "inactive: -8.43%"},
      {"smiles": "N#CC1=C(N)OC2=C(CC/C2=C\\c2ccccc2)C1c1ccccc1", "note": "(stereo not drawn)", "Potency": "inconclusive: 20.6 µM [cytotoxic, single point]"},
      {"smiles": "Cc1nc(-c2ccc(Cl)cc2)sc1C1(C)CC(c2ccncc2)=NO1", "note": "(stereo not drawn)", "activity change, negative = cytotoxicity": "inactive: -3.33%"},
      {"smiles": "CCCC(c1nnnn1Cc1cccs1)N1CCN(c2ccc(OC)cc2)CC1", "note": "(stereo not drawn)", "Potency": "inconclusive: 13 µM [cytotoxic, partial curve, poor fit]"},
      {"smiles": "Cn1c(=O)c(C(=O)Nc2ccccc2S(N)(=O)=O)c(O)c2ccccc21", "Potency": "inconclusive: 20.6 µM [cytotoxic, single point]"},
      {"smiles": "CCOC(=O)Cc1csc(NC(=O)CSc2nnc(-c3ccc(OC)cc3)n2C)n1", "Potency": "inconclusive: 8.2 µM [cytotoxic, partial curve]"},
      {"smiles": "CC(C)CC(C(=O)Nc1cccc(O)c1)N1C(=O)c2ccccc2C1=O", "note": "(stereo not drawn)", "Potency": "inconclusive: 6.51 µM [rising, full curve]"},
      {"smiles": "CCc1ccc(-c2csc(-c3cc4cc(Br)ccc4oc3=O)n2)cc1", "activity change, negative = cytotoxicity": "inactive: 0%"},
      {"smiles": "Cc1ccc(C2=NC3(CCCCC3)N=C2SCC(=O)Nc2ccc3c(c2)OCCO3)cc1", "activity change, negative = cytotoxicity": "inactive: -9.66%"},
      {"smiles": "Cc1nc(N2N=C3/C(=C/c4ccc(F)cc4)CCCC3C2c2ccc(F)cc2)sc1C(=O)N(C)C", "note": "(stereo not drawn)", "Potency": "active: 20.6 µM"},
      {"smiles": "O=C(NC1CCCCC1)C(c1ccc(C(F)(F)F)cc1)n1c(=O)c(-c2cc3ccccc3[nH]2)nc2ccccc21", "note": "(stereo not drawn)", "Potency": "inconclusive: 25.9 µM [cytotoxic, single point]"},
      {"smiles": "O=S(=O)(c1cc(Cl)ccc1Cl)N1CCNCC1", "Potency": "inconclusive: 20.6 µM [cytotoxic, single point]"},
      {"smiles": "O=C(CSc1nc2cc([N+](=O)[O-])ccc2n1-c1ccc(F)cc1)NC1CCS(=O)(=O)C1", "note": "(stereo not drawn)", "Potency": "active: 23.1 µM"},
      {"smiles": "CCC(=O)Oc1cccc(C(=O)Nc2ccc(-c3nnc(-c4ccco4)o3)cc2)c1", "Potency": "inconclusive: 0.58 µM [cytotoxic, full curve, poor fit]"},
      {"smiles": "CN(C)c1ccc(-c2nn3c(-c4cccnc4)nnc3s2)cc1", "Potency": "inconclusive: 14.1 µM [cytotoxic, partial curve, poor fit]"},
      {"smiles": "O=C(NCc1ccccc1)C1Cc2c(-c3ccc4c(c3)OCO4)ccnc2O1", "note": "(stereo not drawn)", "Potency": "active: 1.16 µM"},
      {"smiles": "NC(=O)c1sc2nc(-c3cccnc3)ccc2c1N", "Potency": "inconclusive: 18.4 µM [cytotoxic, single point]"},
      {"smiles": "O=C(/C=C/c1ccco1)NC(=S)Nc1cccc(C(=O)O)c1", "Potency": "inconclusive: 6.51 µM [rising, partial curve]"},
      {"smiles": "CCOC(=O)N1CCc2c(sc3c2c(=O)n(-c2ccc(Cl)cc2)c(=O)n3CC(=O)Nc2ccccc2)C1", "activity change, negative = cytotoxicity": "inactive: 8.55%"},
      {"smiles": "CC(C)(C)c1ccc(NC(=O)C2=CN3CCS(=O)(=O)N=C3C=C2)cc1", "Potency": "inconclusive: 7.31 µM [rising, partial curve, poor fit]"},
      {"smiles": "Cc1ccc(Nc2nc(-c3cccnc3)cs2)cc1Cl", "activity change, negative = cytotoxicity": "inactive: -1.94%"},
      {"smiles": "CCOc1ccc(N2CC(C(=O)NC3CCSC3=O)CC2=O)cc1", "note": "(stereo not drawn)", "activity change, negative = cytotoxicity": "inactive: 0.269%"},
      {"smiles": "CCCCN(C(=O)CC1CCCCC1)c1c(N)n(CCCC)c(=O)[nH]c1=O", "activity change, negative = cytotoxicity": "inactive: 12.7%"},
      {"smiles": "O=C(c1ccccc1)c1ccc2nc(Nc3ccccc3Cl)c3nncn3c2c1", "activity change, negative = cytotoxicity": "inactive: -17.4%"},
      {"smiles": "CCCCN(CC)C(=O)Cn1nc(C)c2c(C)n(-c3ccccc3)nc2c1=O", "activity change, negative = cytotoxicity": "inactive: -13.7%"},
      {"smiles": "O=C(Nc1cccc([N+](=O)[O-])c1)Nc1ccc2c(c1)CCC2", "Potency": "active: 23.1 µM"},
      {"smiles": "CC1CCCCC1NC(=O)CN1C(=O)c2ccccc2S1(=O)=O", "note": "(stereo not drawn)", "Potency": "inconclusive: 29.1 µM [rising, single point]"},
      {"smiles": "Fc1cccc(/C=N/n2c(C3CCCCC3)n[nH]c2=S)c1", "Potency": "inconclusive: 20.6 µM [rising, single point]"},
      {"smiles": "C/C(CC(=O)NCc1ccc(Cl)cc1)=N\\NC(=O)Cc1ccccc1", "activity change, negative = cytotoxicity": "inactive: -5.17%"},
      {"smiles": "CCc1nnc(NC(=O)CCC(=O)N2CCC(Cc3ccccc3)CC2)s1", "Potency": "inconclusive: 23.1 µM [cytotoxic, single point]"},
      {"smiles": "CC1CCCCN1C(=O)COc1ccc(S(=O)(=O)N2CCCC2)cc1[N+](=O)[O-]", "note": "(stereo not drawn)", "Potency": "inconclusive: 29.1 µM [cytotoxic, single point]"},
      {"smiles": "CCCCc1nc2sc3c(SCCN(C)C)ncnc3c2c2c1CCC2", "Potency": "inconclusive: 14.6 µM [cytotoxic, partial curve, poor fit]"},
      {"smiles": "Cc1cccc(Cn2c(SCc3ccc(C(=O)NC4CCCCC4)cc3)nc3cccnc32)c1", "Potency": "inconclusive: 18.4 µM [cytotoxic, single point]"},
      {"smiles": "CC(=O)Nc1ccc(-c2csc(NCc3ccccc3)n2)cc1", "Potency": "inconclusive: 23.1 µM [cytotoxic, single point]"},
      {"smiles": "COc1cc(C(=O)NC(C)C2CC3CCC2C3)cc(OC)c1OC", "note": "(stereo not drawn)", "activity change, negative = cytotoxicity": "inactive: -22.7%"},
      {"smiles": "O=C(OCn1nnc2ccccc2c1=O)c1cccnc1Cl", "activity change, negative = cytotoxicity": "inactive: -0.772%"},
      {"smiles": "O=C1CSC(=Nc2ccc(Cl)cc2)N1", "Potency": "inconclusive: 32.6 µM [cytotoxic, single point]"},
      {"smiles": "COc1ccccc1CNC(=O)CCCn1c(=O)c2ccccc2n(Cc2ccccc2F)c1=O", "activity change, negative = cytotoxicity": "inactive: -3.57%"},
      {"smiles": "COC(=O)c1[nH]c2cc(OC)ccc2c1NC(=O)CCN1CCN(c2cccc(C)c2C)CC1", "activity change, negative = cytotoxicity": "inactive: -16.2%"},
      {"smiles": "CCOC(=O)N1CCN(C(=O)COc2cccc3c2CCN(Cc2ccccc2C)C3=O)CC1", "Potency": "inconclusive: 1.64 µM [cytotoxic, partial curve, poor fit]"},
      {"smiles": "COCCN(C(=O)COC(=O)C12CC3CC(CC(O)(C3)C1)C2)c1c(N)n(Cc2ccccc2)c(=O)[nH]c1=O", "activity change, negative = cytotoxicity": "inactive: 0%"},
      {"smiles": "CC1CCC(NC(=O)C2CC(=O)N(c3ccc(Cl)cc3)C2)CC1", "note": "(stereo not drawn)", "activity change, negative = cytotoxicity": "inactive: 0.252%"},
      {"smiles": "COc1ccc(NC(=O)NCCCCc2ccccc2)cc1", "activity change, negative = cytotoxicity": "inactive: 0.452%"},
      {"smiles": "COc1ccc(C(CNC(=O)c2ccc(Cl)c(S(=O)(=O)N3CCCC3)c2)N2CCCC2)cc1", "note": "(stereo not drawn)", "activity change, negative = cytotoxicity": "inconclusive: -27%"},
      {"smiles": "Cc1ccc(S(=O)(=O)N2CCCC2CNC(=O)C(=O)Nc2ccc(F)cc2F)cc1", "note": "(stereo not drawn)", "Potency": "inconclusive: 7.31 µM [cytotoxic, partial curve]"}
    ]}
  ]
}
